Publication PMC3897670
No constants are given. Whether binding was seen depends on the method and setting. Binding seen in cells or lysates may run through a third protein. Some binding calls cover weakened binding; strength is not graded here.

Amino acid sequences for entries named in this document (tags omitted).
UniProt P29351: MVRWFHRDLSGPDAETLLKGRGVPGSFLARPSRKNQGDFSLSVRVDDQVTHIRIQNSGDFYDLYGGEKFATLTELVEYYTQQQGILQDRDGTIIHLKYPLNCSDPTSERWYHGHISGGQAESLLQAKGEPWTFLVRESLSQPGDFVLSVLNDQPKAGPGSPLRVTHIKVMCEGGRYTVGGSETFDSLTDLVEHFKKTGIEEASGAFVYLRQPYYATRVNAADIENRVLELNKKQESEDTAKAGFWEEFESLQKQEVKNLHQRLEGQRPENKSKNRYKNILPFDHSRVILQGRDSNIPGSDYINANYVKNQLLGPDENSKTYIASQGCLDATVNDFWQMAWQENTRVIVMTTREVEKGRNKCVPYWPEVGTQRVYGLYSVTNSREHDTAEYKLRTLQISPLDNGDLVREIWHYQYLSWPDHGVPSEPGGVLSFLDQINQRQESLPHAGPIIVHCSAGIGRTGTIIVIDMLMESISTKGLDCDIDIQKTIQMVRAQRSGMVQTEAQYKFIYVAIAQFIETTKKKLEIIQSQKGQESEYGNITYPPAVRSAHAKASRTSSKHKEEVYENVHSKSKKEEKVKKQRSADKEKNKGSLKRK
UniProt P42227: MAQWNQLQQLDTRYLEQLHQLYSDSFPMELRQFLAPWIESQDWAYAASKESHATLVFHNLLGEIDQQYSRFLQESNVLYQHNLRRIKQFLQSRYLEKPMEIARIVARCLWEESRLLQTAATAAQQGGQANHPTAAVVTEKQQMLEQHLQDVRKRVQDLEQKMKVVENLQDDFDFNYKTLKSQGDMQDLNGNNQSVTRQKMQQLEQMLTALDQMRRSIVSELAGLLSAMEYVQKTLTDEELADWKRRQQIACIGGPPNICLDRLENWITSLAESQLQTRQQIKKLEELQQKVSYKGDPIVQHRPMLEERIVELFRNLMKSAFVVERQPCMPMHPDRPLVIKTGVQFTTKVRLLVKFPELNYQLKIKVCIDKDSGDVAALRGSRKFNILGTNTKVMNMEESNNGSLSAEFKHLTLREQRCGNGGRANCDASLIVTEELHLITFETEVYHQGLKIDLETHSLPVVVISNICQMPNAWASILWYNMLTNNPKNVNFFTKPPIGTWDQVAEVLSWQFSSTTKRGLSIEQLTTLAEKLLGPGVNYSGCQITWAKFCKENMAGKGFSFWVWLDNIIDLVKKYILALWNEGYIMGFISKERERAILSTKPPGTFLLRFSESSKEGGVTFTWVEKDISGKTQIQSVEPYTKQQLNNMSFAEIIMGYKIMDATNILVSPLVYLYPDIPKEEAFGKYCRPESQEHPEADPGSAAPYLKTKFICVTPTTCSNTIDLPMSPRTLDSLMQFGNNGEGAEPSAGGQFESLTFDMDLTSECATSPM

Target: Src-homology protein tyrosine phosphatase-1 (SHP-1) (mouse (endogenous in F9)) (UniProt P29351)
Assay: co-IP; F9 cell lysates in non-denaturing lysis buffer incubated overnight with rabbit anti-SHP-1 or rabbit anti-STAT3, protein A/G beads 3 h at 4°C, western blot; rabbit IgG as negative control

**Q.** Which binding does the source give for “signal transducer and activator of transcription 3 (STAT3) (from UniProt P42227 1-770)” here?
**A.** binds
